PubChem BioAssay AID493246, Drosophila RNAi Screening Center | 2011
The screen tested about 21,000 reagents; shown is a random part of those that have a named target and a result. Of all reagents, 429 (2%) got an active call. 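Values are raw and not normalised between plates; calls rest on per-plate z-scores that were not deposited.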 Reagents against one gene are numbered here. Not stated in the record: the amount of reagent, the time to read-out.

Test: 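Genome-wide search for dsRNAs that reduce cell number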 (primary screen)
System: Drosophila Kc and S2R+ cells
Reagents: long dsRNA against Drosophila genes
Read-out: 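Raw, unnormalised count of remaining cells in each well; per-plate z-scores of cell number underlie the calls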
Scale: Kc cell number and S2R+ cell number: higher = more cells remaining
Call rule: 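Counted as a hit if cell number falls by a z-score of at least 3 within its plate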

The first 3 records, ahead of the listing:
| predicted target | dsRNA no. | Kc cell number, rep 1 | Kc cell number, rep 2 | S2R+ cell number, rep 1 | S2R+ cell number, rep 2 | outcome |
| --- | --- | --- | --- | --- | --- | --- |
| Nup98-96 | 1 | 1.16e6 | 1.28e6 | 7.87e5 | 9.24e5 | inactive |
| Nup98-96 | 2 | 1.04e6 | 1.08e6 | 7.49e5 | 8.86e5 | inactive |
| DptA | 1 | 1.77e6 | 1.75e6 | 1.26e6 | 1.45e6 | inactive |

The list itself, repeating the preview:
| predicted target | dsRNA no. | Kc cell number, rep 1 | Kc cell number, rep 2 | S2R+ cell number, rep 1 | S2R+ cell number, rep 2 | outcome |
| --- | --- | --- | --- | --- | --- | --- |
| Nup98-96 | 1 | 1.16e6 | 1.28e6 | 7.87e5 | 9.24e5 | inactive |
| Nup98-96 | 2 | 1.04e6 | 1.08e6 | 7.49e5 | 8.86e5 | inactive |
| DptA | 1 | 1.77e6 | 1.75e6 | 1.26e6 | 1.45e6 | inactive |
| CG32603 | 1 | 1.80e6 | 1.80e6 | 1.11e6 | 1.19e6 | inactive |
| Gfrl | 1 | 1.44e6 | 1.60e6 | 1.14e6 | 1.19e6 | inactive |
| Gfrl | 2 | 1.39e6 | 1.34e6 | 1.08e6 | 1.18e6 | inactive |
| Gfrl | 3 | 1.50e6 | 1.60e6 | 1.13e6 | 1.21e6 | inactive |
| Gfrl | 4 | 1.31e6 | 1.29e6 | 1.08e6 | 1.19e6 | inactive |
| NELF-B | 1 | 6.09e5 | – | 9.62e5 | – | inactive |
| CG8237 | 1 | 1.45e6 | 1.50e6 | 9.46e5 | 1.04e6 | inactive |
| Sema2b | 1 | 5.97e5 | – | 7.70e5 | – | inactive |
| Sema2b | 2 | 6.35e5 | – | 7.50e5 | – | inactive |
| Sema2b | 3 | 1.91e6 | 1.91e6 | 1.18e6 | 1.39e6 | inactive |
| CG13407 | 1 | 1.37e6 | 1.52e6 | 9.89e5 | 1.02e6 | inactive |
| CG30016 | 1 | 1.41e6 | 1.36e6 | 9.89e5 | 1.13e6 | inactive |
| CG44433 | 1 | 1.78e6 | 1.79e6 | 1.28e6 | 1.53e6 | inactive |
| CG44433 | 2 | 1.82e6 | 1.91e6 | 1.27e6 | 1.38e6 | inactive |
| Hayan | 1 | 1.57e6 | 1.58e6 | 1.07e6 | 1.20e6 | inactive |
| adp | 1 | 1.42e6 | 1.45e6 | 1.28e6 | 1.30e6 | inactive |
| Tbp | 1 | 1.61e6 | 1.75e6 | 1.30e6 | 3.44e5 | inactive |
| CG42246 | 1 | 1.16e6 | 1.41e6 | 1.04e6 | 1.10e6 | inactive |
| Gyf | 1 | 5.03e5 | – | 8.18e5 | – | inactive |
| fax | 1 | 1.47e6 | 1.51e6 | 1.00e6 | 1.14e6 | inactive |
| Dpit47 | 1 | 1.63e6 | 1.64e6 | 1.18e6 | 1.40e6 | inactive |
